According to PubChem BioAssay AID2685 (National Center for Advancing Translational Sciences (NCATS), 2010):
The other results are listed elsewhere or left out. Further columns of the screen follow, without active or inactive calls. Most of these compounds were active or inconclusive in the main read-out, so they are no random draw. Words in brackets tell the shape of the fitted curve; partial curves, single points and poor fits give uncertain potencies.

Experiment: qHTS Assay for Lipid Storage Modulators in Drosophila S3 Cells;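 on cell number change: cells counted by Cell Tracker Red CMTPX staining in the red channel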
Settings: BODIPY lipid droplet fluorescence, 18-24 h; for cell number change: measured here: cell count max response, cells fed with added oleic acid
Summary of the method: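 Laser-scanning cytometry quantifies lipid droplet accumulation (500–530 nm total intensity; droplet/cell object ratio) in oleic acid-fed (400 uM added) Drosophila S3 cells treated with a concentration series. 20 uM Triacsin C defined 100% inhibition.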

[1] = measured here: lipid fluorescence (Fed channel) AC50, cells fed with added oleic acid
[2] = measured here: cell number channel AC50, cells fed with added oleic acid

SMILES	cell number change [%]	AC50 [1]	AC50 [2]
O=C1Nc2ccccc2/C1=N/c1sc2c(c1C(=O)NCCc1ccccc1)CCCC2	-29.7	14600 nM [falling, single point]	–
COc1cc2ncnc(NCCc3ccccc3)c2cc1OC	-19.5	18400 nM [falling, single point]	–
Cc1ccc(C(=O)Nc2cc3[nH]c(=O)oc3cc2C)cc1	20.8	29100 nM [rising, partial curve, poor fit]	–
O=C(O)c1cc(-c2ccncc2)nc2ccc(S(=O)(=O)N3CCOCC3)cc12	2.37	–	58 nM [falling, full curve, poor fit]
O=C(c1cc2cc(Br)cc(Br)c2oc1=O)N1CCOCC1	26.4	1300 nM [falling, full curve]	–
COc1ccc(-n2c(C)cc(C(=O)CN3C(=O)C(=O)N(Cc4ccccc4)C3=O)c2C)cc1	-0.488	7310 nM [rising, partial curve]	–
CSc1ccccc1-n1nnnc1SCC(=O)Nc1cc(C)ccc1C	14.6	366 nM [rising, full curve, poor fit]	130 nM [rising, full curve]
O=C(c1ccco1)N1CCN(c2ncnc3c2oc2ccccc23)CC1	42.2	1840 nM [rising, partial curve]	517 nM [rising, full curve]
C[C@H](NC(=O)OC(C)(C)C)c1nnc(SCC(N)=O)o1	-10.9	164 nM [falling, full curve, poor fit]	–
Cc1ccc(CN2CCN(/N=C/c3cccn3C)CC2)c(C)c1	27.1	–	–
Cc1c(C(=O)N/N=C/c2ccccc2)[nH]c2ccc(Cl)cc12	-18.5	23100 nM [falling, single point]	–
Cc1nc(Cl)sc1C(=O)Nc1ccccc1	15.4	1300 nM [rising, full curve, poor fit]	–
CC(C)CNc1nc(N)c([N+](=O)[O-])c(NCc2ccccc2)n1	-5.41	5800 nM [falling, full curve]	–
Oc1ccccc1-c1cncn1Cc1ccccc1	27.6	1030 nM [rising, full curve, poor fit]	–
O=C(NC1CCC(NC(=O)C(F)(F)C(F)F)CC1)C(F)(F)C(F)F (centres undefined)	-9.03	2310 nM [falling, full curve, poor fit]	–
O=c1[nH]c(=O)n(Cc2ccco2)c2c1C(C(F)(F)F)(C(F)(F)F)N=C(CCC1CCCCC1)N2	-55.6	25900 nM [falling, single point]	18400 nM [falling, single point]
Cc1c(/C=N\NC(=O)c2ccc([N+](=O)[O-])cc2)cnn1C	-36.2	32.6 nM [falling, full curve]	5170 nM [falling, full curve]
Cc1cc(C)cc(NC(=O)C2C3C=CC4(O3)C2C(=O)N(CCCN2CCCCC2)C4C(=O)NC2CCCCC2)c1 (centres undefined)	19	2910 nM [falling, partial curve]	–
O=C(Nc1cccc(F)c1)C1CCN(C(=O)c2ccc(Br)cc2)CC1	71.6	–	18400 nM [rising, single point]

SMILES	cell number change [%]	AC50 [1]	AC50 [2]
COc1ccc(CNC(=O)CCS(=O)(=O)c2cccc3nonc23)cc1	0.132	–	–
O=C(OCC1CC(c2ccccc2)=NO1)c1ccco1 (centres undefined)	0.645	4.61 nM [falling, full curve, poor fit]	–
O=C(c1ccc2ccccc2c1)N1CCN(S(=O)(=O)/C=C/c2ccccc2)CC1	-15.2	–	–
CCc1cccc(NC(=O)C2CCN(S(=O)(=O)c3ccc4c(c3)CC(C)N4C(C)=O)CC2)c1 (centres undefined)	-23.4	–	–
COc1ccc(NC(=O)NC2CCCc3ccccc32)cc1 (centres undefined)	–	29100 nM [rising, single point]	–
Cc1cccnc1NC(=O)CN1C(=O)COc2ccc(Cl)cc21	10.3	82 nM [rising, full curve, poor fit]	–
Cc1ccccc1N1CCN(CC(=O)Nc2nc(C)c(C(=O)N(C)C)s2)CC1	-0.824	14600 nM [rising, partial curve]	–
CC[n+]1c(/C=C/N(C)c2ccccc2)n(-c2ccccc2)c2ccc(-c3nc4ccccc4s3)cc21	-27.5	2310 nM [falling, partial curve]	82 nM [falling, full curve, poor fit]
CCOC(=O)C1CCN(C(=O)c2ccc(N(C)S(C)(=O)=O)cc2)CC1	21.9	65.1 nM [rising, full curve, poor fit]	65.1 nM [rising, full curve, poor fit]
COc1ccc(C(=O)c2cn(CC(=O)Nc3cc(OC)cc(OC)c3)c3ccc(OC)cc3c2=O)cc1	37.1	23100 nM [rising, partial curve]	23100 nM [rising, single point]
[O-]/[N+](=C\C=C\c1ccccc1)c1ccccc1	-17.5	3660 nM [falling, full curve, poor fit]	–
COc1ccccc1NC(=O)COc1coc(CN2CCN(c3ccccc3)CC2)cc1=O	–	–	1460 nM [rising, full curve]
COc1ccc2cc3cc(C(=O)Nc4ccc5c(c4)OCCO5)oc3nc2c1	-70.4	–	16400 nM [falling, partial curve, poor fit]
Cc1ccc(S(=O)(=O)N(Cc2nccn2C)C(C)C)cc1	3.84	29100 nM [rising, single point]	–
COc1ccc2oc(C(=O)c3ccccc3)c(N)c2c1	-35.2	–	291 nM [falling, full curve]
COc1ccc(C(=O)c2ccccc2Cl)cc1	–	326 nM [falling, partial curve, poor fit]	–
Cc1ccc2c(Cl)cc(Cl)c(OCC(=O)NC3CCS(=O)(=O)C3)c2n1 (centres undefined)	–	5.17 nM [falling, full curve, poor fit]	–
O=C(N/N=C/c1ccc2c(c1)OCO2)c1ccc2ccccc2n1	90.9	14600 nM [rising, partial curve]	18400 nM [rising, partial curve]

Entries listed so far that have fluorine (three):
SMILES	cell number change [%]	AC50 [1]	AC50 [2]
O=C(NC1CCC(NC(=O)C(F)(F)C(F)F)CC1)C(F)(F)C(F)F (centres undefined)	-9.03	2310 nM [falling, full curve, poor fit]	–
O=c1[nH]c(=O)n(Cc2ccco2)c2c1C(C(F)(F)F)(C(F)(F)F)N=C(CCC1CCCCC1)N2	-55.6	25900 nM [falling, single point]	18400 nM [falling, single point]
O=C(Nc1cccc(F)c1)C1CCN(C(=O)c2ccc(Br)cc2)CC1	71.6	–	18400 nM [rising, single point]
